Results on 1 molecule are retold here after US20100009970A1, “COMPOSITIONS AND METHODS FOR TREATMENT OF VIRAL DISEASES” (Combinatorx (Singapore) Pte. Ltd., priority 2008, published 2010).

Molecules are shown by their SMILES.

The test system of the test is Huh7 cells expressing a subgenomic RNA replicon of Con1 (genotype 1b) sequence origin. Briefly: microbe, parasite or virus in culture. Conditions: Hepatitis C virus, Huh-7.

In turn, `O=C(CCCN1CCC2(CC1)C(=O)NCN2c1ccccc1)c1ccc(F)cc1` [Spiperone, reference compound] registered an IC50 of 7.21 µM. This counts as single-digit micromolar.

Broadly, the IC50 is the midpoint of a concentration-inhibition curve. A higher IC50 goes with weaker potency.
